Measured values: the supplement of paper PMC11150407
The whole screen tested about 3,000 compounds, of which about 45 (2%) showed an effect of 50% or more. The list shows a part of the results.

System: MOLM1 and UCSD/AML1 (averaged)
Assay: cell viability relative to DMSO control (POC); higher = less growth inhibition
Conditions: 1 µM; 72 h
Protocol: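 Primary viability screen in the 3q26 EVI1-high AML cell lines MOLM1 and UCSD/AML1, compounds at 1 uM for 72 h. ATP CellTiter-Glo read-out given as percent viable over DMSO control (POC), averaged over duplicates. This mapping covers the TimTec NDL-3000 natural derivative library, whose compounds are identified by TimTec catalogue codes (ST...).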

| Compound | cell viability [%] |
| --- | --- |
| COc1ccc(NC(=S)NC(=O)/C=C/c2cc(OC)c(OC)c(OC)c2)cc1 | 100 |
| COc1ccc(CCNC(=O)Cn2c(C(C)=O)nc3ccccc32)cc1OC | 97 |
| O=C(Nc1nccs1)c1ccc2c(c1)OCO2 | 99.1 |
| COc1ccc(-c2oc3ccccc3c(=O)c2OC)cc1OC | 90.1 |
| O=C(Oc1cccc(/C=N/NC(=O)C(O)(c2ccccc2)c2ccccc2)c1)c1ccc2c(c1)OCO2 | 105 |
| COc1ccc2oc(=O)c(-c3ccc(F)cc3)cc2c1 | 104 |
| CCCCc1c(O)c2ccccc2n(Cc2ccccc2)c1=O | 96.9 |
| Cc1cccc(C)c1OCCN=Cc1c(O)c(O)c(C(C)C)c2cc(C)c(-c3c(C)cc4c(C(C)C)c(O)c(O)c(C=NCCOc5c(C)cccc5C)c4c3O)c(O)c12 | 87.5 |
| COC(=O)/C(=C\C(=O)c1ccccc1)Nc1ccc(I)cc1 | 98.8 |
| COc1ccccc1NC(=O)NCCc1c[nH]c2ccccc12 | 100 |
| CN1CCC(OC(=O)c2cc3cc([N+](=O)[O-])ccc3oc2=O)CC1 | 101 |
| COc1cc(CNS(=O)(=O)c2ccc(CN3C(=O)c4ccccc4C3=O)cc2)cc(OC)c1OC | 94.3 |
| O=C(Oc1ccc2oc(-c3ccccc3)cc(=O)c2c1)c1cccs1 | 104 |
| CCOC(=O)CNC(=O)c1cc(Cl)ccc1Cl | 99.5 |
| Nc1nc(N)c2nccnc2n1 | 114 |
| CCn1c(N/N=C/c2ccccc2Cl)nc2c1c(=O)[nH]c(=O)n2C | 101 |

| Compound | cell viability [%] |
| --- | --- |
| COc1cc2c(cc1OC)CC(=O)NC2 | 89.9 |
| COc1cc(CCC(=O)Nc2nnc(C(C)(C)C)s2)cc(OC)c1OC | 97.9 |
| O=c1oc2ccc(Cl)cc2cc1-c1nc2ccccc2s1 | 101 |
| O=C(Cc1n[nH]c(=O)[nH]c1=O)N/N=C/c1cccc([N+](=O)[O-])c1 | 97.7 |
| O=C(Cn1cc(I)cn1)N1CCc2ccccc2C1 | 103 |
| CCOC(=O)c1ccc2[nH]c(=O)c(CC)c(O)c2c1 | 91.7 |
| COc1cc(CC(=O)O)ccc1OC(C)=O | 101 |
| COc1cc(C(=O)Nc2ccc3ncn(C)c3c2)cc(OC)c1OC | 93.9 |
| COc1cc(C2NC(=O)NC(C)=C2C(=O)OCC(F)(F)F)ccc1O (stereo unspecified) | 104 |
| COCCOC(=O)c1c(C)n(CCOc2ccc(C)cc2)c2c1cc(O)c1ccccc12 | 96.7 |
| CSc1nc2[nH]c(=O)[nH]c2c(=O)[nH]1 | 101 |
| NC(=O)COc1ccc2oc(-c3ccccc3)cc(=O)c2c1 | 116 |
| C/C=C/c1ccc(OCC(=O)OC)c(OC)c1 | 105 |
| CCCNC(=O)c1cc(=O)n(CC(=O)Nc2c(C)cc(C)cc2C)c2ccccc12 | 94.1 |
| CC(=O)OCC1OC(OCCN=[N+]=[N-])C(OC(C)=O)C(OC(C)=O)C1OC(C)=O (stereo unspecified) | 101 |

Another view of 2 compounds above:
Compound	cell viability [%]
COc1cc(CCC(=O)Nc2nnc(C(C)(C)C)s2)cc(OC)c1OC	97.9
O=c1oc2ccc(Cl)cc2cc1-c1nc2ccccc2s1	101
